For at least one entry, the source does not settle the construct or the ends of the probe.
How the values were obtained:
[1] = test system: CmVNI2 (GST-CmVNI2) (Chrysanthemum morifolium); test: competition with a labelled probe; conditions: cold competitor, dose-dependent, EMSA: room temperature, 30 min, 6% native PAGE, 0.5x TBE, 60 V, 4 C, binding buffer, salt and pH not stated, recombinant protein, protein details: N-terminal GST (pGEX-4T-2)
[2] = test system: CmVNI2 (GST-CmVNI2) (Chrysanthemum morifolium); test: EMSA; conditions: 1 ug protein, 2 nM probe; EMSA: room temperature, 30 min; 6% native PAGE, 0.5x TBE, 60 V, 4 C; binding buffer, salt and pH not stated; recombinant protein; protein details: N-terminal GST (pGEX-4T-2); label: 5' biotin

| Sequence | binding result [2] | other results |
| --- | --- | --- |
| CCAACATTACGTACAAAACA (double strand) [CmF3H promoter competitor (cold)] | – | binding result ([1]; vs biotin-CmF3H probe): binds |
| CCAACATTACGTACAAAACA (double strand) [CmF3H promoter probe] | binds | – |
| TTTTAGTCTTACGTACATAA (double strand) [CmMYB3 promoter competitor (cold)] | – | binding result ([1]; vs biotin-CmMYB3 probe): binds |
| TTTTAGTCTTACGTACATAA (double strand) [CmMYB3 promoter probe] | binds | – |
